# For some assays here: Some peptides are written in HELM: one residue between dots, names in brackets for other building blocks, links after the first $.
# What was measured:
# peptide synthesis = conditions: whole synthesis
# [1] = general procedure: peptide synthesis; Rink Amide AM resin; conditions: whole synthesis
Substance,final HPLC purity (peptide synthesis),final HPLC purity [1]
PEPTIDE1{N.A.V.S.I.Q.[am]}$$$$V2.0,>98%,
Biotin-NAPVSIPQ-NH2,,>97%

# — patent publication US10100082B2 (Council of Scientific and Industrial Research, priority 2016, dated 2018)
